Binding data for one molecule are collected here from patent US20030100058A1.

For test [1], the target named is Human G-protein Chemokine Receptor (CCR5) HDGNR10 (human). As to the kind of experiment: FACS, hybridoma supernatant on CCR5 CHO cells against vector control CHO cells. (In flow cytometry, cells or beads pass a laser one at a time.)
The target is the same in test [2]. As to the kind of experiment: membrane ELISA, CCR5 CHO plasma membranes. In general terms: ELISA stands for enzyme-linked immunosorbent assay.

Results are given in words; binding and its absence hold for the method and conditions named. A result given as binding can be weak or reduced; the word gives no strength.

B1: XF11.1D8 (antibody, V domains shown)
VH: QVQLQESGPGLVKPSETLSLTCTVSGGSISSFYWSWIRQPAGKGLDWIGRIYTSGNTNYNPSLKSRVTMSVDTSKNRFSLKLSSVTAADTAVYYCARDRGSSWYPDAFDIWGQGTMVTVSS
VL: DIVLTHSPGTLSLSPGERATLSCRASQRVTSSCLAWYQQKPGQAPRLLIYGTSSRATGIPDRFSGSGSGTDFTLTISRLEPEDFAVYYCQQYVSSPLTFGQGTRLEIKR
With B1, the binding result in test [1] and in test [2] was “binds” in each case.
